In PubChem BioAssay (NCATS):
For some of these results: Shown are results outside the selection of hits, which stands elsewhere. Results filed as inconclusive are left out. This is a selection; strong and weak results do not stand in their true shares. Activity calls are given as the source filed them. Unless noted, calls follow the shape of the dose curve; as a rule, active = well fitted inhibition curve with a large enough effect; inconclusive = small, poorly fitted or top-dose-only effect; inactive = flat fitted curve, though single readings scatter.

Chains of the proteins cited; added tags and fusions are not shown. Lines headed by an entry give the natural chain unless they say otherwise; changes in a name come on top.
UniProt Q99828: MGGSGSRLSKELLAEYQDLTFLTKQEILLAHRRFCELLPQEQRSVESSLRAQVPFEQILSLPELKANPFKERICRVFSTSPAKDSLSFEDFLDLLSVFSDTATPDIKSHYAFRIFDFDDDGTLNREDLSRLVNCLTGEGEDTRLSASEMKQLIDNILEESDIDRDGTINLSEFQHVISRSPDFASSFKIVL
UniProt P07203, whole entry, looked up: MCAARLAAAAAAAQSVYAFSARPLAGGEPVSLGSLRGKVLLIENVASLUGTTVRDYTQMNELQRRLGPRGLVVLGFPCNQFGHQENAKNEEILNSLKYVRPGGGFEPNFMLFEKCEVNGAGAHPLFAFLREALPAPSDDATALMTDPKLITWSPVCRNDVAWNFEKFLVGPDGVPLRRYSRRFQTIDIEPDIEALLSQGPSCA
UniProt P04062: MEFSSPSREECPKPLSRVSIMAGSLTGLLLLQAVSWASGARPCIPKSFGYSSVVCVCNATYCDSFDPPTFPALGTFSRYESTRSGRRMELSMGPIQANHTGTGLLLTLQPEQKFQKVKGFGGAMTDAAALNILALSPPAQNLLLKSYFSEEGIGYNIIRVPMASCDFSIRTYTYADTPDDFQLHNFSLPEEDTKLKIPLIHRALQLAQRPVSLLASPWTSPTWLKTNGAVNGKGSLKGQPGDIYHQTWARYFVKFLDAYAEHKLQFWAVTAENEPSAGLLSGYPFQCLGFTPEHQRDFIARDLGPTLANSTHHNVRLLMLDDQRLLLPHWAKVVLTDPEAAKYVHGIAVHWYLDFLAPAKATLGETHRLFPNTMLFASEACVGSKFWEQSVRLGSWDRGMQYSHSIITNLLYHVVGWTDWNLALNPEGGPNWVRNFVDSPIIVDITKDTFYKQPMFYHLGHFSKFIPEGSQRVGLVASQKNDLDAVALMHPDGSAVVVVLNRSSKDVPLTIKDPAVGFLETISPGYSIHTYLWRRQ
UniProt Q07343: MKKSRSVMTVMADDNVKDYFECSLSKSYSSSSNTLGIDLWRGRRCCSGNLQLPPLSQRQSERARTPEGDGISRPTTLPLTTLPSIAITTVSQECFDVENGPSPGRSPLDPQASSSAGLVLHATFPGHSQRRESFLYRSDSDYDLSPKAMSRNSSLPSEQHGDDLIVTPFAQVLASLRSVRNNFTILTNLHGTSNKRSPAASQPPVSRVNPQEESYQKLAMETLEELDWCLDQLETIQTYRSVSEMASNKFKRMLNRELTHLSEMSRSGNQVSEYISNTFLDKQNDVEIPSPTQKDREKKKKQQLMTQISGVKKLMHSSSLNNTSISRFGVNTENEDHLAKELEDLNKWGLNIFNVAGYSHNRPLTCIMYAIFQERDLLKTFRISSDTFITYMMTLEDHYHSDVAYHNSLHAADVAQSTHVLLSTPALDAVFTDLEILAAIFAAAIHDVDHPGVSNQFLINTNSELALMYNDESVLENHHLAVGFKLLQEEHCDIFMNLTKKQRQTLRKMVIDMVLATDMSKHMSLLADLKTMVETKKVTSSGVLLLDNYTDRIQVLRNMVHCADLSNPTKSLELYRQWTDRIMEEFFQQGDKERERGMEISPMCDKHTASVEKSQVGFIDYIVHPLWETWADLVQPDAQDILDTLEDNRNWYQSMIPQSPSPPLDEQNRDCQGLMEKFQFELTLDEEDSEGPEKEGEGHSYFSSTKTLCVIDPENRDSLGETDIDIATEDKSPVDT
UniProt P36969, whole entry, looked up: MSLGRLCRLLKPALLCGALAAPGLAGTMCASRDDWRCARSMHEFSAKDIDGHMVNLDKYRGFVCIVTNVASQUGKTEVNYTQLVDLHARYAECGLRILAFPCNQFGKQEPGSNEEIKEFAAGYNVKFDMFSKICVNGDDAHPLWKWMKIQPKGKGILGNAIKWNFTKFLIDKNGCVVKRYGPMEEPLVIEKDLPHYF

What was measured:
[1] = molecular target: Calcium and integrin-binding protein 1 (Homo sapiens) (UniProt Q99828); test: Primary qHTS for Identification of Calcium Integrin Binding Protein 1 (CIB1) Competitor (AID 1508620); details: CIB1-GST / FITC-alphaIIb peptide fluorescence polarization; at 114 µM (top of the series);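 also: GST tagged CIB1 binding a fluorescein labelled alphaIIb integrin peptide tracer; top concentration of the series differs between compounds; % is scaled to controls: 0 for no effect and ±100 for the full control effect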
In short: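 Fluorescence polarization competition: CIB1-GST (1 uM final) preincubated with compound 15 min at room temperature, then FITC-labeled alphaIIb peptide (100 nM final) added for another 15 min. Polarization read at Ex 480/Em 540.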

[2] = molecular target: Glutathione peroxidase 1 (Homo sapiens) (UniProt P07203); test: Primary qHTS Assay for Inhibitors of Recombinant Selenoprotein Glutathione Peroxidase 1 (GPX1) (AID 1845191); details: recombinant GPX1, GR-coupled NADPH fluorescence, 15 min; activity, negative = inhibition: at 48.8 µM (top of the series); also: % is scaled to controls: 0 for no effect and ±100 for the full control effect; nearly all actives have a fitted effect of over 65% in size
In short: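 GPX1 10 nM, GR 100 nM, GSH 1 mM, NADPH 0.5 mM, CHP 0.5 mM (final). 30-min cpd preincubation, RT. Ex340/Em450 read t=0, t=15 min.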

[3] = molecular target: Lysosomal acid glucosylceramidase (Homo sapiens) (UniProt P04062); test: Glucocerebrosidase-p2 (AID 348; in the data active = potency below about 10 µM; also: potency is read from the fitted curve at half-maximal effect); details: purified GBA, blue fluorogenic substrate, 40 min
In short: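 Normal human glucocerebrosidase (0.2 nM) with blue fluorogenic substrate (80 uM final) in citrate/phosphate pH 5.9 with 10mM sodium taurocholate, 0.01% tween-20; 40 min RT, NaOH/glycine stop; fluorescence Ex 365/Em 440; AC50 from a titration from 0.6 nM upwards.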

[4] = AP1 Signaling Pathway (AID 357; active = well fitted curve in either direction with a large enough effect, not every such curve was filed as active;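 also: ME-180 reporter cells stimulated with EGF at its EC50 level; % is scaled to controls: 0 for no effect and ±100 for the full control effect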); details: ME-180 (cervical carcinoma) AP-1-bla reporter, EGF-induced, beta-lactamase ratio, 5 h; at 7.69 µM (top of the series)
In short: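 Beta-lactamase reporter under AP-1 response element, ME-180 background. Stimulus: EC50 EGF. Compound exposure 5 h, 37 °C. Detection: CCF4, 2.5 h RT, 460/530 nm. Values: AC50 from titration.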

[5] = NFAT Signaling Pathway (AID 444; active = well fitted curve in either direction with a large enough effect, not every such curve was filed as active;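 also: carbachol stimulus at about its EC50 of 1 µM final; % is scaled to controls: 0 for no effect and ±100 for the full control effect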); details: Jurkat NFAT-bla M1, carbachol, beta-lactamase ratio, 5 h; at 7.69 µM (top of the series)
In short: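 Jurkat cells carrying an NFAT-driven β-lactamase reporter and co-transfected muscarinic M1 receptor were treated with compound plus carbachol (1 uM final, an EC50 level) for 5 h at 37 °C. CCF4 loading followed for 1 h at RT; 460/530 nm ratio gave %activity.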

[6] = molecular target: Mitogen-activated protein kinase 10 (Mus musculus) (UniProt Q61831); test: JNK3 AlphaScreen Assay (AID 530; active = well fitted curve in either direction with a large enough effect, not every such curve was filed as active;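 also: kinase came from lysate of stimulated human HepG2 cells; signal reports phosphorylation of biotinylated GST-cJun 1-79 at Ser73 with 10 µM ATP; % is scaled to controls: 0 for no effect and ±100 for the full control effect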); details: JNK3 lysate, c-Jun phosphorylation; at 11.4 µM (top of the series) unless noted
In short: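 Biotinylated GST-cJun(1-79) served as substrate for JNK3 in HepG2 lysates stimulated with IL-1beta and TNF-alpha. ATP was 10 uM final, pH 7.6. Ser73 phosphorylation was quantified by AlphaScreen (680 nm excitation).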

[7] = molecular target: 3',5'-cyclic-AMP phosphodiesterase 4B (Homo sapiens) (UniProt Q07343); test: qHTS Assay for Inhibitors of PDE-IV (AID 607; active = well fitted activation curve with a large enough effect in the main read-out, with a control signal flat, not every such curve was filed as active; also: % of control where 0% means no effect); details: HEK293 ACTOne CNG channel cells, membrane potential fluorescence; at 22.9 µM (top of the series)
In short: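 ACTOne HEK293 cells carry a modified cAMP-gated CNG channel and express endogenous PDE4; plated 1000 cells/well, compounds up to 22.9 uM final. Membrane-potential dye fluorescence (ex 535/em 590) was read; parental cells received 10 uM forskolin + 100 uM RO 20-1724.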

[8] = molecular target: Phospholipid hydroperoxide glutathione peroxidase GPX4 (Homo sapiens) (UniProt P36969); test: Primary qHTS Assay for Inhibitors of Recombinant Selenoprotein Glutathione Peroxidase 4 (GPX4) (AID 1845192); details: recombinant GPX4, GR-coupled NADPH fluorescence, 15 min; at 50 µM (top of the series); also: % is scaled to controls: 0 for no effect and ±100 for the full control effect; nearly all actives have a fitted effect of over 65% in size
In short: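 qHTS, GR-coupled: GPX4 200 nM + cpd 30 min RT → GSH 1 mM, NADPH 0.5 mM, GR 100 nM → CHP 0.5 mM start; fluor 340/450 at t0 and t15 min; no-enzyme wells as control.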

CN([C@H]1c2cc(OCCCC(F)(F)F)ccc2OC(C)(C)[C@@H]1O)S(C)(=O)=O
activity change, negative = inhibition [1]: inactive: -0.897%
activity, negative = inhibition [2]: inactive: 0.624%

CCCCNc1c(CN)cnc2cc(Cl)ccc12
Potency [3]: active: 4.78 µM
activity change, negative = inhibition [4]: inactive: 4.8%
activity change, negative = inhibition [5]: inactive: 22.9%
activity change, negative = inhibition [6]: inactive: -3.34%
activation (PDE inhibition) [7]: inactive: 13.9%

N#Cc1ccc2c(c1)CCN(CCC1CCC(NC(=O)c3ccnc4ccccc34)CC1)C2 (stereo not drawn)
activity change, negative = inhibition [1]: inactive: 2.23%
activity, negative = inhibition [2]: inactive: -0.281%
activity change, negative = inhibition [8]: inactive: 3.42%

O=C(Nc1cccc(C(F)(F)F)c1)c1ccccc1NCc1ccncc1
activity change, negative = inhibition [1]: inactive: 4.01%
activity change, negative = inhibition [8]: inactive: -22.6%

CS(=O)(=O)c1ccc([C@@H](CC2CCCC2)C(=O)Nc2cnccn2)cc1Cl
activity, negative = inhibition [2]: inactive: -23.2%
